Data: PubChem BioAssay AID445 (National Center for Advancing Translational Sciences (NCATS), 2006)
The list shows a part of the results. Shown are side measurements of this screen, not its main read-out; they come without a call. Most of these compounds were active or inconclusive in the main read-out, so they are no random draw. Words in brackets tell the shape of the fitted curve; partial curves, single points and poor fits give uncertain potencies.

assay: IkB Signaling; details: ABC-DLBCL IkBa-CBG/CBR dual luciferase ratio (green luciferase fused to IkBa over red control in OCI-Ly3 lymphoma cells), 4 h; measured here: control luc red channel unless noted
In short: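 Curves were fitted separately to fusion (green), unfused (red) and ratio luminescence, then classed by r2, magnitude and activity. Cells: OCI-Ly3, 4 h compound plus doxycycline at 37C; 10 uM MG-132 defined full response.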

Question: Which AC50 does the source give for `O=C(Cn1c(=O)n(Cc2ccc(F)cc2)c(=O)c2sc3ccccc3c21)NCc1ccccc1` here?
Answer: 2 µM [rising, partial curve]

Question: For `Cc1ccc(C)c(Cn2c(C(C)NC(=O)c3ccccc3)nc3ccccc32)c1` (configuration not stated), which AC50 is on record?
Answer: 7.94 µM [falling, partial curve]

Question: Which AC50 does the source give for `COc1cccc(OCc2nc3ccccc3n2C)c1` here?
Answer: 1 µM [rising, full curve]

Question: Which AC50 does the source give for `O=C(CCn1cnc2onc(-c3ccc(F)cc3)c2c1=O)N1CCN(c2ccccc2)CC1` here?
Answer: 15.8 µM [falling, partial curve]

Question: With `O=C(CSC1=Nc2ccccc2C2=NC(Cc3ccccc3)C(=O)N12)Nc1ccccc1` (configuration not stated) as the compound, how does the AC50 read?
Answer: 3.16 µM [rising, partial curve]

Question: With `CN(Cc1ccccc1)S(=O)(=O)c1ccc(F)c(C(=O)Nc2cc(Cl)cc(Cl)c2)c1` as the compound, how does the AC50 read?
Answer: 25.1 µM [falling, partial curve]

Question: For `O=C(Nc1cc(-c2nc3cc(Cl)ccc3o2)ccc1Cl)c1cc2ccccc2o1`, which AC50 is on record?
Answer: 15.8 µM [falling, partial curve]

Question: With `CCc1nn2c(=O)cc(COC(=O)c3cccs3)nc2s1` as the compound, how does the AC50 read?
Answer: 3.98 µM [falling, full curve]

Question: Which AC50 does the source give for `O=C(Nc1ccc2nn(-c3ccccc3)nc2c1)c1ccc2c(c1)OCCO2` here?
Answer: 2.51 µM [falling, full curve]

Question: Which AC50 does the source give for `CC(Oc1ccccc1)C(=O)Nc1ccc(C(=O)OCc2cc(=O)n3ccsc3n2)cc1` (configuration not stated) here?
Answer: 31.6 µM [falling, single point]

Question: For `N#Cc1nc(/C=C/c2ccc(F)cc2)oc1N1CCCCC1`, which AC50 is on record?
Answer: 10 µM [rising, partial curve]

Question: Which AC50 does the source give for `Cc1cccc(Nc2cc(C)nc3nc(Cc4ccc(Cl)cc4)nn23)c1` here?
Answer: 31.6 µM [falling, single point]

Question: Which AC50 does the source give for `CCCOc1ccccc1C(=O)Nc1ccc(-c2nc3ccc(C)cc3s2)cc1` here?
Answer: 0.126 µM [rising, full curve]

Question: For `COc1ccc(CNC(=O)c2ccc3c(Cl)c4c(nc3c2)CCCC4)c(OC)c1`, which AC50 is on record?
Answer: 15.8 µM [falling, partial curve]

Question: For `Cc1nc(SCC(=O)Nc2ccc(Cl)cc2C(F)(F)F)[nH]c(=O)c1Cc1ccccc1`, which AC50 is on record?
Answer: 20 µM [falling, partial curve]

Question: With `O=S(=O)(Nc1ccc(-c2ccc(N3CCCC3)nn2)cc1)c1ccccc1Cl` as the compound, how does the AC50 read?
Answer: 12.6 µM [falling, partial curve]

Question: With `Cc1ccc(N2CCN(c3nc4ccccc4n4nnnc34)CC2)c(C)c1` as the compound, how does the AC50 read?
Answer: 2 µM [falling, full curve]

Question: With `Cc1ccc(Cl)cc1N1CCN(C(=O)c2cnn(-c3ccc(Cl)cc3)c2C2CCNCC2)CC1` as the compound, how does the AC50 read?
Answer: 25.1 µM [falling, single point]

Question: Which AC50 does the source give for `COc1cccc(C2=NOC(C(=O)Nc3cc(OC)c(OC)c(OC)c3)C2)c1` (configuration not stated) here?
Answer: 15.8 µM [falling, partial curve]

Question: Which AC50 does the source give for `Cc1ccc(CCNC(=O)c2ccc(Cn3c(=O)c4cccn4c4cccnc43)cc2)cc1` here?
Answer: 20 µM [falling, partial curve]

Question: For `O=C(COc1cccc(Cl)c1)N1CCC(c2nc3ccccc3s2)CC1`, which AC50 is on record?
Answer: 31.6 µM [falling, single point]

Question: With `Cc1ccccc1Cn1cc(NC(=O)c2cc(-c3ccc(Cl)cc3)on2)cn1` as the compound, how does the AC50 read?
Answer: 0.0631 µM [rising, full curve, poor fit]

Question: For `Cc1nc2ncnn2c(N2CCN(C(c3ccccc3)c3ccccc3)CC2)c1C`, which AC50 is on record?
Answer: 20 µM [falling, partial curve]

Question: With `Cc1cccc(NC(=O)CN2C(=O)COc3ccc(S(=O)(=O)Nc4ccccc4)cc32)c1C` as the compound, how does the AC50 read?
Answer: 6.31 µM [rising, full curve, poor fit]

Question: Which AC50 does the source give for `Cc1ccc(S(=O)(=O)c2nnn3c2nc(NCc2ccc(F)cc2)c2sccc23)cc1C` here?
Answer: 7.94 µM [falling, partial curve]

Question: For `Cc1ccc(C(=O)Nc2nccs2)cc1S(=O)(=O)N1CCCCC1`, which AC50 is on record?
Answer: 15.8 µM [falling, partial curve]

Question: With `COC(=O)c1ccc(OC)c(CSc2nnc(COc3ccc(OC)cc3)o2)c1` as the compound, how does the AC50 read?
Answer: 15.8 µM [falling, partial curve]

Question: With `CC(=O)c1ccc(NC(=O)/C=C/c2ccc(C)o2)cc1` as the compound, how does the AC50 read?
Answer: 12.6 µM [falling, partial curve]

Question: For `O=C(CSc1nc2c([nH]c3ccccc32)c(=O)n1-c1cccc(C(F)(F)F)c1)N1CCCC1`, which AC50 is on record?
Answer: 15.8 µM [rising, partial curve]

Question: For `CCOC(=O)c1cccc(NC(=O)C2(S(=O)(=O)c3ccc(C)cc3)CC2)c1`, which AC50 is on record?
Answer: 10 µM [falling, partial curve, poor fit]

Question: For `COc1cccc(C(=O)Nc2ccc(-c3nc4ccc(C)cc4s3)cc2)c1OC`, which AC50 is on record?
Answer: 25.1 µM [rising, single point]

Question: For `CC(=O)C1=C(c2ccc(C)cc2)N(C(C)=O)n2c(nnc2-c2ccccc2)S1`, which AC50 is on record?
Answer: 12.6 µM [falling, single point]

Question: With `O=C(Nc1ccc(C(F)(F)F)cc1)C1CCN(c2cnccn2)CC1` as the compound, how does the AC50 read?
Answer: 15.8 µM [falling, single point]

Question: With `COc1cccc(Cn2c(SCC(=O)N(C)c3ccccc3)nc3ccccc32)c1` as the compound, how does the AC50 read?
Answer: 31.6 µM [falling, partial curve]

Question: Which AC50 does the source give for `COc1cccc2cc(-c3csc(-c4ccc(Cl)cc4)n3)c(=O)oc12` here?
Answer: 0.00631 µM [rising, full curve, poor fit]

Question: For `O=C(CN1CCC(C(=O)c2ccc(F)cc2)CC1)Nc1ccccc1`, which AC50 is on record?
Answer: 12.6 µM [falling, partial curve]

Question: Which AC50 does the source give for `CCc1ccc(-n2c(SCc3ccccc3C)nc3[nH]ncc3c2=O)cc1` here?
Answer: 20 µM [falling, partial curve]

Question: Which AC50 does the source give for `COC(=O)c1ccc(Cn2c(SCc3ccccc3)nc3ccncc32)cc1` here?
Answer: 15.8 µM [falling, single point]

Question: Which AC50 does the source give for `Cc1ccc(-c2nc(CS(=O)(=O)CC(=O)NCc3ccc(Cl)cc3)c(C)o2)cc1` here?
Answer: 0.631 µM [falling, partial curve, poor fit]

Question: With `CCc1ccc(-n2nc(C)c3c(C(=O)Nc4cc(C)c(Cl)cc4OC)cc(C)nc32)cc1` as the compound, how does the AC50 read?
Answer: 0.00631 µM [falling, full curve, poor fit]

Question: For `CCCN(C(=O)COc1cc(=O)n(CC)c2ccccc12)c1ccc(C(C)C)cc1`, which AC50 is on record?
Answer: 25.1 µM [falling, single point]

Question: Which AC50 does the source give for `O=C(Cn1c(=O)n(Cc2ccco2)c(=O)c2ccccc21)Nc1cccc(Cl)c1` here?
Answer: 10 µM [falling, partial curve]

Question: For `CCOC(=O)c1c(NC(=O)c2cc3nc(-c4ccccc4)cc(C(F)(F)F)n3n2)sc2c1CCC(C)C2` (configuration not stated), which AC50 is on record?
Answer: 6.31 µM [rising, partial curve]

Question: For `Cc1cc(C(=O)Nc2cccc(F)c2)c2c(C)nn(-c3cccc(Cl)c3C)c2n1`, which AC50 is on record?
Answer: 3.98 µM [falling, full curve, poor fit]

Question: Which AC50 does the source give for `Cc1cc2cc(CCNC(=O)c3ccc(S(=O)(=O)N4CCOCC4)cc3)c(=O)[nH]c2cc1C` here?
Answer: 3.98 µM [falling, partial curve]

Question: With `COc1ccc(CCNC(=O)c2nc(SCc3ccc(C)cc3)ncc2Cl)cc1OC` as the compound, how does the AC50 read?
Answer: 0.251 µM [falling, full curve]

Question: Which AC50 does the source give for `CN(C)c1ccc(C(=O)Nc2cccc(-c3nc4cccnc4s3)c2)cc1` here?
Answer: 39.8 µM [falling, single point]

Question: With `Cc1cc(O)c(-c2cc(C(=O)Nc3ccc(S(=O)(=O)N4CCOCC4)cc3)[nH]n2)cc1C` as the compound, how does the AC50 read?
Answer: 3.98 µM [falling, full curve]

Question: Which AC50 does the source give for `CCc1c(C)sc2c1CCN(C(=O)Nc1cc(Cl)c(OC)cc1OC)C2c1ccccc1` (configuration not stated) here?
Answer: 2.51 µM [falling, full curve]

Question: For `CCC(=O)N1CCc2cc(CNS(=O)(=O)c3ccc(NC(=O)CC(C)C)cc3)ccc21`, which AC50 is on record?
Answer: 3.16 µM [falling, partial curve, poor fit]

Question: With `COc1ccc2c(c1)CC(C(=O)NCCCN1CCN(c3ccccc3F)CC1)CO2` (configuration not stated) as the compound, how does the AC50 read?
Answer: 10 µM [falling, partial curve]

Question: Which AC50 does the source give for `CCn1c(C)c(C)c2cc(C(=O)NCc3ccc(OC)cc3OC)ccc21` here?
Answer: 39.8 µM [falling, single point]

Question: With `Cc1ccc(-c2nnc(Nc3ccc(OCC(N)=O)cc3)c3ccccc23)cc1S(=O)(=O)N(C)C` as the compound, how does the AC50 read?
Answer: 31.6 µM [falling, single point]

Question: Which AC50 does the source give for `CC(C)(C)c1ccc(C2=NC(C)(C)N(CC(=O)Nc3ccc(F)c(F)c3)C2=O)cc1` here?
Answer: 10 µM [falling, partial curve]

Question: For `Cc1cc(C)cc(NC(=O)Nc2ccccc2OCc2cc(=O)n3ccccc3n2)c1`, which AC50 is on record?
Answer: 3.98 µM [falling, full curve]

Question: Which AC50 does the source give for `COc1ccc(-n2ccn(Cc3ccccc3C)c(=O)c2=O)cc1` here?
Answer: 39.8 µM [falling, single point]

Question: Which AC50 does the source give for `CCOc1ccc(N(C(C)C(=O)NCCSc2ccc(C)cc2)S(C)(=O)=O)cc1` (configuration not stated) here?
Answer: 31.6 µM [falling, single point]

Question: With `COc1cccc(C(c2sc3nc(-c4ccco4)nn3c2O)N2CCN(c3ccccc3F)CC2)c1` (configuration not stated) as the compound, how does the AC50 read?
Answer: 20 µM [falling, partial curve, poor fit]

Question: Which AC50 does the source give for `Cc1cc(C)cc(NC(=O)C(=O)NCC(c2cccnc2)N2CCN(c3ccccc3)CC2)c1` (configuration not stated) here?
Answer: 25.1 µM [falling, single point]

Question: For `COc1cccc(N2CCN(C(=O)c3ccc4nc(N5CCCCC5)sc4c3)CC2)c1`, which AC50 is on record?
Answer: 12.6 µM [falling, partial curve]

Question: With `CN1CCN(C(c2cccnc2)c2ccc3cccnc3c2O)CC1` (configuration not stated) as the compound, how does the AC50 read?
Answer: 25.1 µM [rising, partial curve] [measured here: IkB-luc green channel]
